US20020197697A1
These are yes or no findings as the source states them, for the method shown. Some binding calls cover weakened binding; strength is not graded here.

Amino acid sequences for entries named in this document (tags omitted). Residues count along the entry.
UniProt P07996, residues 19-1170: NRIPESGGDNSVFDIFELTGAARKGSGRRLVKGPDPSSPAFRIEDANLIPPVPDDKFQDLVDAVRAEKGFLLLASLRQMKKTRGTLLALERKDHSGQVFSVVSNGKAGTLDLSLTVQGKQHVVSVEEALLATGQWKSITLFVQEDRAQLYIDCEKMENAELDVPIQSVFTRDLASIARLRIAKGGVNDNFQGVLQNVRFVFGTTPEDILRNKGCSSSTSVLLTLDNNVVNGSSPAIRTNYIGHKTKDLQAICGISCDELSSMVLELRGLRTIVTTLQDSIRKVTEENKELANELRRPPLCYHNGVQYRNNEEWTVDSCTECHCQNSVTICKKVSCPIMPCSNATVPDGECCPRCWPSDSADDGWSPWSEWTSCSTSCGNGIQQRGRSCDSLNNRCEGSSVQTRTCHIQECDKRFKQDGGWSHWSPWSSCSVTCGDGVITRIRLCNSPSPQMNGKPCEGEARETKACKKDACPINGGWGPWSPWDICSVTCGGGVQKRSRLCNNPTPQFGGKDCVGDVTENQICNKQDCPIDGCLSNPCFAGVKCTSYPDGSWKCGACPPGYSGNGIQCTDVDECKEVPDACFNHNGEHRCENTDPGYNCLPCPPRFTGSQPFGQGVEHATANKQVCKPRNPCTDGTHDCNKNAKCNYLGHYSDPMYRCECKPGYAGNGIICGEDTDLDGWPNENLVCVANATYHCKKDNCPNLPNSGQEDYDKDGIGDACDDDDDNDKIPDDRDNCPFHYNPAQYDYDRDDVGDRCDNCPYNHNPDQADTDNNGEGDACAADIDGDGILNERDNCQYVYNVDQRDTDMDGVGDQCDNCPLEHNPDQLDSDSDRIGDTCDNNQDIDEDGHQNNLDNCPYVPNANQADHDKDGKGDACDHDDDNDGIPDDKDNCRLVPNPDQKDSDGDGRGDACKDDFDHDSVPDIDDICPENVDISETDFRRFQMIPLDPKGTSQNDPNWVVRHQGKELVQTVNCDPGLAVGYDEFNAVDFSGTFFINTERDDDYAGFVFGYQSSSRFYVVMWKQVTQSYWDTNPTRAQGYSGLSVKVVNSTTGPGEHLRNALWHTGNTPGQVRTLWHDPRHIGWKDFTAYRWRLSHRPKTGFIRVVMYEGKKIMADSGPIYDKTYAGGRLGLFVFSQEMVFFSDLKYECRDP

Biological target: thrombospondin-1 (human) (UniProt P07996)
Test: gel permeation chromatography on Sephadex G200 of 125I-heparin with rPF4 and TSP-1; association through heparin

- binding: binds
B1: recombinant platelet factor 4 (ligand, UniProt P02776 32-101, looked up)
chain: EAEEDGDLQCLCVKTTSQVRPRHITSLEVIKAGPHCPTAQLIATLKNGRKICLDLQAPLYKKIIKKLLES
